This passage reports binding results from publication PMC4534575, “The RNA Helicase DHX34 Activates NMD by Promoting a Transition from the Surveillance to the Decay-Inducing Complex” (Cell Reports, 2014).

Assay [1] has as its target T1, FLAG-UPF1 (wild-type) (human) (UniProt Q92900).
T1 sequence: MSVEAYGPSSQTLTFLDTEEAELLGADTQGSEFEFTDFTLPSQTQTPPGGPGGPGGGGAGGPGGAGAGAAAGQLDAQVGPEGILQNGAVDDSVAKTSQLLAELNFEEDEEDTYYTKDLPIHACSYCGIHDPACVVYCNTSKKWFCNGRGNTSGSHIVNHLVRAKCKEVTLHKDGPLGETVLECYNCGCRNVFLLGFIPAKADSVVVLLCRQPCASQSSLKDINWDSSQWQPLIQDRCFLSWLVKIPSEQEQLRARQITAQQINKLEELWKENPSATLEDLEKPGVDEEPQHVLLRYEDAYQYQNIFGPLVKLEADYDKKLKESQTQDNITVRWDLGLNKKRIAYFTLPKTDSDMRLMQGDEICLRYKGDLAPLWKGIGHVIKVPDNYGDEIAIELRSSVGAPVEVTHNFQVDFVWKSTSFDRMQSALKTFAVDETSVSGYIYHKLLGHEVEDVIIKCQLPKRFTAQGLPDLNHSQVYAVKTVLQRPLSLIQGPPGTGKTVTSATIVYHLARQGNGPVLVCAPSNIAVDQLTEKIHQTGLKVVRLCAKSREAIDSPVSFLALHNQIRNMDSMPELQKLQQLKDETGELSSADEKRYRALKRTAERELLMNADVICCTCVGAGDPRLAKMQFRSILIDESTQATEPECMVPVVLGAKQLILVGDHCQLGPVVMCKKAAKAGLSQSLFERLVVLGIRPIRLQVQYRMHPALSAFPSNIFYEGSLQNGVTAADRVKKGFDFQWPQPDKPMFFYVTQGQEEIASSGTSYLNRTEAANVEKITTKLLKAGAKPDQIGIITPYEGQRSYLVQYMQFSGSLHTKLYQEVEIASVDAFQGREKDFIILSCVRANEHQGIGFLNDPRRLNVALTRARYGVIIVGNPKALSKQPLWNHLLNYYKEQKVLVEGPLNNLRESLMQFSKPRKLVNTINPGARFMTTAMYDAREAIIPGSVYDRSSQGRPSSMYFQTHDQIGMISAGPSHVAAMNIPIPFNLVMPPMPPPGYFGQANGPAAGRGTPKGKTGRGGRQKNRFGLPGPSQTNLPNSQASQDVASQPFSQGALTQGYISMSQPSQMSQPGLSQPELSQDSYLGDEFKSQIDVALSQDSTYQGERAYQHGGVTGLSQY
In words: co-IP; anti-FLAG IP of transiently transfected FLAG-UPF1 (wild-type or mutants) from HEK293T lysate; endogenous partners by western blot; in the absence or presence of RNase A (Figures 2B, S2B); cells also depleted of DHX34 by shRNA, rescued with T7-DHX34, or cotransfected with T7-DHX34.

Another assay concerns the target FLAG-UPF1 ΔCT (human). Briefly: co-IP; anti-FLAG IP from HEK293T cells cotransfected with FLAG-UPF1 (wild-type or mutants) and T7-DHX34 (wild-type or ATPase mutants); RNase A in Figure 3C; T7-DHX34 by western blot.
For another assay, the target named is FLAG-UPF1 ΔN (human). The description is as above.
The target of a further assay is FLAG-UPF1 ΔCH (human). Described as above.
The next assay has as its target FLAG-eRF3. In words: co-IP; anti-FLAG IP from HEK293T cells depleted of DHX34 by shRNA and cotransfected with FLAG-eRF1 or FLAG-eRF3 and shRNA-resistant T7-DHX34; lysis in 20 mM Tris-HCl (pH 7.2), 150 mM KCl, 10 mM MgCl2, 0.5% NP-40.

Substitutions are numbered along the chain they refer to. Numbers in names are those of the source. No constants are given. Whether binding was seen depends on the method and setting. In cells and extracts the contact can be indirect. A result given as binding can be weak or reduced; the word gives no strength. For part of these data: Where a sequence is shown, tags or fusion partners need not be part of it.

Regarding “eukaryotic release factor eRF3 (endogenous) (human (endogenous in HEK293T))”, in assay [1], the binding result is recorded as “binds”.

B1: T7-DHX34 (wild-type) (protein, UniProt Q14147 1-1143)
chain: MPPPRTREGRDRRDHHRAPSEEEALEKWDWNCPETRRLLEDAFFREEDYIRQGSEECQKFWTFFERLQRFQNLKTSRKEEKDPGQPKHSIPALADLPRTYDPRYRINLSVLGPATRGSQGLGRHLPAERVAEFRRALLHYLDFGQKQAFGRLAKLQRERAALPIAQYGNRILQTLKEHQVVVVAGDTGCGKSTQVPQYLLAAGFSHVACTQPRRIACISLAKRVGFESLSQYGSQVGYQIRFESTRSAATKIVFLTVGLLLRQIQREPSLPQYEVLIVDEVHERHLHNDFLLGVLQRLLPTRPDLKVILMSATINISLFSSYFSNAPVVQVPGRLFPITVVYQPQEAEPTTSKSEKLDPRPFLRVLESIDHKYPPEERGDLLVFLSGMAEISAVLEAAQTYASHTQRWVVLPLHSALSVADQDKVFDVAPPGVRKCILSTNIAETSVTIDGIRFVVDSGKVKEMSYDPQAKLQRLQEFWISQASAEQRKGRAGRTGPGVCFRLYAESDYDAFAPYPVPEIRRVALDSLVLQMKSMSVGDPRTFPFIEPPPPASLETAILYLRDQGALDSSEALTPIGSLLAQLPVDVVIGKMLILGSMFSLVEPVLTIAAALSVQSPFTRSAQSSPECAAARRPLESDQGDPFTLFNVFNAWVQVKSERSRNSRKWCRRRGIEEHRLYEMANLRRQFKELLEDHGLLAGAQAAQVGDSYSRLQQRRERRALHQLKRQHEEGAGRRRKVLRLQEEQDGGSSDEDRAGPAPPGASDGVDIQDVKFKLRHDLAQLQAAASSAQDLSREQLALLKLVLGRGLYPQLAVPDAFNSSRKDSDQIFHTQAKQGAVLHPTCVFAGSPEVLHAQELEASNCDGSRDDKDKMSSKHQLLSFVSLLETNKPYLVNCVRIPALQSLLLFSRSLDTNGDCSRLVADGWLELQLADSESAIRLLAASLRLRARWESALDRQLAHQAQQQLEEEEEDTPVSPKEVATLSKELLQFTASKIPYSLRRLTGLEVQNMYVGPQTIPATPHLPGLFGSSTLSPHPTKGGYAVTDFLTYNCLTNDTDLYSDCLRTFWTCPHCGLHAPLTPLERIAHENTCPQAPQDGPPGAEEAALETLQKTSVLQRPYHCEACGKDFLFTPTEVLRHRKQHV
As to B1, the binding entry in the assay with FLAG-UPF1 ΔCT (human), with FLAG-UPF1 ΔN (human) and with FLAG-UPF1 ΔCH (human) was “binds” in each case.

B2: T7-DHX34 D279A (protein, UniProt Q14147 1-1143)
chain: B1 chain with D279A
Turning to B2, the binding result with FLAG-eRF3 is recorded as “binds”.

B3: T7-DHX34 K191S (protein, UniProt Q14147 1-1143)
chain: B1 chain with K191S
As to B3, the binding result with FLAG-eRF3 is given as “binds”.
